Measured values from article PMC5812214.

Sequences of proteins named here, by UniProt entry; tags and fusion partners are left off.
UniProt Q00987: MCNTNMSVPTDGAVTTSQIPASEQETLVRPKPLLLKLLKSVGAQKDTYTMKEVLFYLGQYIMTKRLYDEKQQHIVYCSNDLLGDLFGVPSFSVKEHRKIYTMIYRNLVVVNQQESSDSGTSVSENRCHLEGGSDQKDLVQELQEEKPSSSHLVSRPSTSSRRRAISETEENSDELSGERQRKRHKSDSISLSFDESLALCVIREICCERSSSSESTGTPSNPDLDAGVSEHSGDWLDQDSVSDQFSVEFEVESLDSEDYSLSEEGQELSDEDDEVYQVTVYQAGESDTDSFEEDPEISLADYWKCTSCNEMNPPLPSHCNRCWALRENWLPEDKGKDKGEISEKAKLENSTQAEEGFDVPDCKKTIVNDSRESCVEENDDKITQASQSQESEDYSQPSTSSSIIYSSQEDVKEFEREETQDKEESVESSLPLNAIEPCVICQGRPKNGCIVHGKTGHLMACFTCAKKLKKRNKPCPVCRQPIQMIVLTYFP
UniProt P14649: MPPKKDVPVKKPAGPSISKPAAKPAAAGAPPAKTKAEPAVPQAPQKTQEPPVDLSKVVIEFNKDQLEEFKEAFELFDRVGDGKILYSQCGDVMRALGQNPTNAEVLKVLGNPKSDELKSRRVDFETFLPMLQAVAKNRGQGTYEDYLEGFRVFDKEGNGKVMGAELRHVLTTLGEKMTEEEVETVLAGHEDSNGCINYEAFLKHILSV

Target: myc3-MDM2 (pCMV-myc3-HDM2) (human) (UniProt Q00987)
Experiment: affinity purification with mass spectrometry; lysate of Huh7 cells transfected with myc3-MDM2 (50 mM Tris-HCl pH 7.5, 150 mM NaCl, 1% Triton X-100, 1 mM EDTA), anti-myc affinity gel 4 °C 3 h, washed with TBS plus 0.1% Nonidet P-40, eluted with glycine-HCl pH 2.2, NanoLC-ESI-MS/MS

Myosin Light Chain 6B (MYL6B), endogenous (from UniProt P14649 1-208)
binding: binds

These are yes or no findings as the source states them, for the method shown. In cells and extracts the contact can be indirect. These calls come from enrichment with a bait or labelling near it, and not all partners need be listed.
